PubChem BioAssay AID686938 | Drosophila RNAi Screening Center | 2013

- Purpose: 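Looking for CRAC channel components and the factors controlling them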 (primary screen)
- Cell system: Drosophila S2R+ cells
- Reagent: long dsRNA against Drosophila genes, about 0.25 µg dsRNA per well, roughly 10,000 cells
- Duration: 5 days of knock-down before the calcium assay
- Treatment: thapsigargin (SERCA pump blocker) to empty calcium stores; entry signal taken 4 min after adding it
- Measurement: 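Per-well fluo-4 fluorescence in two replicates, unnormalised, measured in resting cells and 4 min after store depletion by the SERCA blocker thapsigargin; ratio of the two present in few wells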
- Scale: calcium entry signal: higher = stronger calcium signal after store depletion; entry to resting ratio: higher = more calcium entry relative to resting level; resting calcium signal: higher = higher resting calcium signal
- Units: calcium entry signal in fluorescence units; resting calcium signal in fluorescence units
- Active means: 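Hit if the duplicate-averaged plate z-score for entry over resting signal is under −3; wells with weak total dye signal (Fmax z < −2) or more than 5 off-targets removed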
- Calls: active = strongly reduced calcium entry; inactive = no strong reduction
In all, the deposit lists about 23,000 reagents; below is an unselected part of those with a known target gene and a result. In the full data, 75 (0.33%) got an active call. 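Raw plate signals without normalisation; calls rest on plate z-scores that were not deposited; ratio present for only 364 wells.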 Entries without a mark were called inactive. The record does not give: the dose of the treatment.

Knock-down of CG14237 [DRSC14731] gave: calcium entry signal, replicate 1 = 2.01e7; calcium entry signal, replicate 2 = 4.36e7; resting calcium signal, replicate 1 = 1.32e7; resting calcium signal, replicate 2 = 1.90e7.
For CG14237 [DRSC23239] the deposit lists calcium entry signal, replicate 1 = 3.22e7; calcium entry signal, replicate 2 = 3.93e7; resting calcium signal, replicate 1 = 1.81e7; resting calcium signal, replicate 2 = 1.63e7.
Depletion of CG10747 [DRSC02104] gave: calcium entry signal, replicate 1 = 4.64e7; calcium entry signal, replicate 2 = 5.27e7; resting calcium signal, replicate 1 = 2.56e7; resting calcium signal, replicate 2 = 2.21e7.
Against CG2656 [DRSC12584], the values are calcium entry signal, replicate 1 = 4.52e7; calcium entry signal, replicate 2 = 4.08e7; resting calcium signal, replicate 1 = 1.80e7; resting calcium signal, replicate 2 = 1.91e7.
For CG16868 [DRSC06633], the values are calcium entry signal, replicate 1 = 4.09e7; calcium entry signal, replicate 2 = 3.67e7; resting calcium signal, replicate 1 = 1.88e7; resting calcium signal, replicate 2 = 1.73e7.
With knock-down of Prp19 (Pre-RNA processing factor 19) [DRSC07434] the results were calcium entry signal, replicate 1 = 2.68e7; calcium entry signal, replicate 2 = 3.34e7; resting calcium signal, replicate 1 = 1.69e7; resting calcium signal, replicate 2 = 1.90e7.
Against alpha-PheRS (Phenylalanyl-tRNA synthetase, alpha-subunit) [DRSC18224], the entry reads calcium entry signal, replicate 1 = 2.09e7; calcium entry signal, replicate 2 = 2.00e7; resting calcium signal, replicate 1 = 9.42e6; resting calcium signal, replicate 2 = 1.01e7.
CG2233 [DRSC18217] gave calcium entry signal, replicate 1 = 2.61e7; calcium entry signal, replicate 2 = 2.54e7; resting calcium signal, replicate 1 = 1.19e7; resting calcium signal, replicate 2 = 1.26e7.
Silencing of CG42266 [DRSC21577] resulted in: calcium entry signal, replicate 1 = 3.39e7; calcium entry signal, replicate 2 = 3.15e7; resting calcium signal, replicate 1 = 2.11e7; resting calcium signal, replicate 2 = 1.48e7.
For CG42266 [DRSC21957], the values are calcium entry signal, replicate 1 = 3.83e7; calcium entry signal, replicate 2 = 8.91e7; resting calcium signal, replicate 1 = 1.86e7; resting calcium signal, replicate 2 = 3.82e7.
Silencing of PIG-K (Phosphatidylinositol glycan anchor biosynthesis class K) [DRSC18496] resulted in: calcium entry signal, replicate 1 = 3.81e7; calcium entry signal, replicate 2 = 6.24e7; entry to resting ratio 2.1; resting calcium signal, replicate 1 = 1.79e7; resting calcium signal, replicate 2 = 2.19e7.
Silencing of Or74a (Odorant receptor 74a) [DRSC11245] resulted in: calcium entry signal, replicate 1 = 5.06e7; calcium entry signal, replicate 2 = 6.30e7; resting calcium signal, replicate 1 = 2.11e7; resting calcium signal, replicate 2 = 2.77e7.

Look-ups from the list:
Result of CG2656 [DRSC12584] under “resting calcium signal, replicate 2”: 1.91e7
Entry for CG10747 [DRSC02104] under “calcium entry signal, replicate 1”: 4.64e7
